Laboratory results reported in PubChem BioAssay AID504834 (National Center for Advancing Translational Sciences (NCATS), 2011).
The campaign covered roughly 320,000 compounds. About 22,000 (6.9%) were called active. The inconclusive results got no clear call from the source; some entries with a clear call stand among them for comparison. The call rests on the fitted dose curve; in most records, active means well fitted inhibition curve with a large enough effect; inconclusive means small, poorly fitted or top-dose-only effect, or another doubt; inactive means no such curve, though single readings can be large or run the other way. Potencies of inconclusive entries are doubtful fits and often do not repeat.

test: Primary qHTS for delayed death inhibitors of the malarial parasite plastid, 96 hour incubation; settings: P. falciparum luciferase reporter growth; series mostly up to 28.7 µM
In short: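 Infected RBCs, 2% Hct / 0.05% parasitemia final; luciferase-reporter P. falciparum; cpd 96 h, 37 C, 5% CO2; luciferase detection reagent; luminescence.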
Potency means the concentration at half of the fitted maximal effect.

SMILES	Potency
Cn1c(CN2CCOCC2)nnc1SCC(=O)NC1CCCCC1	inconclusive: 13.1 µM [inhibitor, single point]
Cc1c(OCC(F)(F)F)ccnc1CS(=O)c1nc2ccccc2[nH]1 (stereo not drawn)	inactive
CCOc1ccc2nc(N(CCN(CC)CC)C(=O)/C=C/c3cccs3)sc2c1	inconclusive: 18.5 µM [inhibitor, single point]
CN(C)C(=O)c1cc(C(=O)c2ccccc2Cl)c[nH]1	inconclusive: 2.94 µM [inhibitor, single point]
COc1ccccc1CNC(=O)COC(=O)c1c(C)nn(-c2ccccc2)c1Cl	inconclusive: 4.65 µM [inhibitor, partial curve, poor fit]
O=C(c1ccccc1F)N1CCN(S(=O)(=O)c2ccc(Br)cc2)CC1	inactive
COc1ccc(CCNC(=O)c2c(C)nn(CC(C)C)c2Cl)cc1	inconclusive: 18.5 µM [inhibitor, single point]
Cc1csc(NC(=O)CCNC(=O)c2ccc([N+](=O)[O-])cc2)n1	inconclusive: 10.4 µM [inhibitor, single point]
O=C(CCc1ccccc1)NC(=S)Nc1ccc2c(c1)C(=O)OC2	inconclusive: 7.38 µM [inhibitor, partial curve, poor fit]
O=C(COc1ccc(Cl)cc1)NCc1nnc(SCC(=O)NC2CCCC2)o1	active: 4.15 µM
Cc1cc(N2C(=O)C(O)=C(C(=O)c3ccc(C)o3)C2c2ccc([N+](=O)[O-])cc2)no1 (stereo not drawn)	inconclusive: 14.7 µM [inhibitor, partial curve]
Nc1nc(F)nc2c1ncn2[C@@H]1O[C@H](CO)[C@@H](O)[C@@H]1O	inactive
CCC(C(=O)OCC(=O)Nc1ccccc1-c1ccccc1)c1ccccc1 (stereo not drawn)	inconclusive: 10.4 µM [inhibitor, partial curve, poor fit]
CC1CCc2sc(C(=O)NC(C)C3CCCO3)cc2C1 (stereo not drawn)	inactive
COc1ccc2c(c1OC)CN1CCc3cc4c(cc3[C@H]1C2)OCO4	active: 0.721 µM
CCOc1ccc(N(CC)C(=O)COc2cc(=O)n(CC)c3ccccc23)cc1	inconclusive: 18.5 µM [inhibitor, single point]
COc1ccc(-n2c(N)c(C(=O)NCc3ccco3)c3nc4ccccc4nc32)cc1	inconclusive: 14.7 µM [inhibitor, partial curve, poor fit]
CCC1CCCCN1CCCNC(=O)C1CCN(S(=O)(=O)N2CCCCC2)CC1 (stereo not drawn)	inconclusive: 3.7 µM [inhibitor, partial curve, poor fit]
Cc1ccc(-n2c(C)cc(/C=N/NC(=O)CN(c3ccc(C)cc3C)S(C)(=O)=O)c2C)cc1	inconclusive: 18.5 µM [inhibitor, single point]
C=CCN(c1ccccc1)S(=O)(=O)c1cc2c(cc1C)N(C)CCO2	inconclusive: 10.4 µM [inhibitor, single point]
O=C(Nc1ccccc1Cl)N1CCN(c2ccc3nncn3n2)CC1	inconclusive: 8.28 µM [inhibitor, partial curve, poor fit]
CC(C)(C)c1ccc(N2C(=O)CSC2c2cccnc2)cc1 (stereo not drawn)	inconclusive: 0.208 µM [inhibitor, full curve, poor fit]

Filtered by structure: those above with a nitro group on carbon.
SMILES	Potency
Cc1csc(NC(=O)CCNC(=O)c2ccc([N+](=O)[O-])cc2)n1	inconclusive: 10.4 µM [inhibitor, single point]
Cc1cc(N2C(=O)C(O)=C(C(=O)c3ccc(C)o3)C2c2ccc([N+](=O)[O-])cc2)no1 (stereo not drawn)	inconclusive: 14.7 µM [inhibitor, partial curve]

The listing continues:

SMILES	Potency
O=C(CCc1ccccc1)Nc1ccc(NC(=O)C2CC2)nc1	inconclusive: 18.5 µM [inhibitor, single point]
Oc1ccc(Cl)c(Cl)c1	inconclusive: 5.22 µM [inhibitor, single point]
Nc1ccc(C(=O)NCCCCCCNC(=O)c2ccc(N)cc2)cc1	inconclusive: 0.165 µM [inhibitor, full curve, poor fit]
O=C(NCCc1ccc(F)cc1)c1ccc(S(=O)(=O)N2CCCC2)cc1	inconclusive: 16.5 µM [inhibitor, single point]
COc1ccc(C(=O)Nc2ccccc2C(=O)N/N=C/c2ccccn2)cc1OC	active: 11.7 µM
CCCN(CCC)S(=O)(=O)c1ccc(C(=O)OCCN2C(=O)c3cccc4c(N5CCOCC5)ccc(c34)C2=O)cc1	inconclusive: 4.65 µM [inhibitor, partial curve, poor fit]
CSc1ccc(/C=N/NC(=O)CN2CCN(Cc3ccc(C)cc3)CC2)cc1	inconclusive: 9.28 µM [inhibitor, partial curve]
O=C(CC1C(=O)NCCN1Cc1ccc(-c2ccccc2)cc1)NCc1ccccc1 (stereo not drawn)	active: 6.57 µM
CC(C)Sc1cc(N2CCOCC2)nc(-c2ccc(Cl)cc2)n1	inconclusive: 10.4 µM [inhibitor, single point]
O=C(Nc1cccc(Cl)c1)NC1CCN(C2CCCCC2)C1 (stereo not drawn)	active: 11.7 µM
O=C(NCC1CCCO1)c1ccc(NC(=O)c2cc(F)c(F)cc2Cl)cc1 (stereo not drawn)	inconclusive: 9.28 µM [inhibitor, partial curve]
Cc1ccc(-c2nc(CS(=O)(=O)CC(=O)N3CCN(C)CC3)c(C)o2)cc1	inconclusive: 18.5 µM [inhibitor, single point]
CC(=O)Nc1ccc(SCC(=O)c2c(N)n(Cc3ccccc3)c(=O)n(C)c2=O)cc1	inconclusive: 18.5 µM [inhibitor, single point]
COc1cc(/C=C/C(=O)c2ccccc2O)cc(OC)c1OC	inactive
Cc1ccc(-c2csc(N3C(=N)SCC3=O)n2)cc1	inactive
C#CCN(C(=O)c1ccc(OC)c(OC2CCN(C(C)C)CC2)c1)C1CCCCC1	inconclusive: 5.22 µM [inhibitor, partial curve, poor fit]
COc1ccc(CC(=O)Nc2cc(Cl)ccc2O)cc1	inconclusive: 11.7 µM [inhibitor, single point]
CCc1ccccc1NC(=O)c1ccc2c(c1)CCN2S(C)(=O)=O	inconclusive: 5.22 µM [inhibitor, partial curve]
CC(=O)c1cnc2cc(-c3ccc(Cl)cc3)nn2c1C	inactive
O=C(CCNS(=O)(=O)c1ccc(Cl)cc1)N1CCCC1	inactive
Oc1c(/C=N/c2ccccn2)sc2ccccc12	inconclusive: 4.15 µM [inhibitor, single point]
